PubChem BioAssay AID1347131 (National Center for Advancing Translational Sciences (NCATS), 2019)
Among all 410,000 compounds or so, about 2,000 (0.49%) were called active. The shares of active, inactive and inconclusive entries below differ from those in the screen. Calls follow the shape of the full dose curve; tested in HEK293 reporter line. A potency beside an inconclusive call is a rough fit, not a confirmed value.

Experiment: qHTS Assay for Foot and Mouth Disease Virus Antivirals: Primary Screen against the MLPCN compound library; also: nearly all actives have a fitted effect of over 55% in size
Details: FMDV antiviral cell-based qHTS; activity, negative = inhibition: at 57.9 µM (top of the series)
Potency is read from the fitted curve at half-maximal effect.

Structure (SMILES) | Potency | activity, negative = inhibition
O=c1[nH]c(-c2ccccn2)nc2sc(-c3ccccc3)cc12 | inconclusive: 11.2 µM [inhibitor, partial curve, poor fit] | –
CCOC(=O)C1=C(CN2CCC(C(=O)OCC)CC2)NC(=O)NC1c1ccc(Cl)cc1 (configuration not stated) | – | inconclusive: -30.2% [inhibitor]
Cc1cccc(C)c1-n1nnnc1C(c1cc2ccccc2o1)N1CCC(n2c(=O)[nH]c3ccccc32)CC1 (configuration not stated) | inconclusive: 10 µM [inhibitor, partial curve, poor fit] | –
O=C(CCl)Nc1cn(-c2ccccc2)nc1-c1ccc(F)cc1 | inconclusive: 15.8 µM [inhibitor, partial curve, poor fit] | –
C/C(=N/NC(=O)c1cc(C(C)C)[nH]n1)c1cccs1 | inconclusive: 17.8 µM [inhibitor, single point] | –
COc1ccc(/C=C/C(=O)c2ccc3c4c(cccc24)CC3)cc1OC | inconclusive: 17.8 µM [inhibitor, partial curve, poor fit] | –
Cc1ccc2nc(-c3cccc(N)c3)[nH]c2c1 | inconclusive: 15.8 µM [inhibitor, single point] | –
OC1(C#Cc2c(-c3ccsc3)oc3ccc(N4CCOCC4)cc23)CCCCC1 | – | inconclusive: -32.5% [inhibitor]
CC(C)(C)c1ccc(C(=O)Nc2cccc3c(=O)[nH][nH]c(=O)c23)cc1 | inconclusive: 4.47 µM [inhibitor, partial curve, poor fit] | –
O=C(CCl)N1CCN(S(=O)(=O)c2ccc3c(c2)CCC3)CC1 | inconclusive: 20 µM [inhibitor, partial curve, poor fit] | –
C=CCN=C(SCC(=O)c1ccc(Cl)cc1)c1c(O)n(C)c(=O)n(C)c1=O | inconclusive: 5.01 µM [inhibitor, partial curve] | –
C=C[C@H](Cc1ccccc1)N(Cc1ccccc1)S(=O)(=O)N(Cc1ccccc1)[C@H](C=C)Cc1ccccc1 | – | inactive: -45.3%
C/C(=N\Nc1nc2ccccc2s1)c1cccs1 | inconclusive: 20 µM [inhibitor, single point] | –
CCCS(=O)(=O)c1cscc1NC(=O)c1c(-c2c(F)cccc2Cl)noc1C | – | inactive: -35.1%
Cc1ccc(-c2cc3nc4c(c(=O)n3[nH]2)CCCC4)cc1 | inconclusive: 12.6 µM [inhibitor, single point] | –
Cc1ccc(-n2ncc3c(N4CCN(c5ccc(F)cc5)CC4)ncnc32)cc1 | – | inactive: -27.8%
COc1ccc(-c2csc(Nc3cc(C)ccn3)n2)cc1OC | inconclusive: 39.8 µM [inhibitor, single point] | –
COc1cc(N=c2ssnc2Cl)cc(OC)c1 | inconclusive: 39.8 µM [inhibitor, partial curve, poor fit] | –
O=C(NC1CCN(Cc2ccccc2)C1)c1cc(COc2ccc(F)cc2F)on1 (configuration not stated) | inconclusive: 2.24 µM [inhibitor, full curve] | –
Cc1ccccc1OCCn1cc(/C(N)=N/O)c2ccccc21 | inconclusive: 28.2 µM [inhibitor, partial curve, poor fit] | –
N#Cc1c(C#N)c(SSc2c(C#N)c(C#N)c(N)n2-c2ccccc2)n(-c2ccccc2)c1N | inconclusive: 39.8 µM [inhibitor, partial curve, poor fit] | –

Single values from the entries so far.
Value for CCOC(=O)C1=C(CN2CCC(C(=O)OCC)CC2)NC(=O)NC1c1ccc(Cl)cc1 (configuration not stated) under activity, negative = inhibition: inconclusive: -30.2% [inhibitor]
Value for OC1(C#Cc2c(-c3ccsc3)oc3ccc(N4CCOCC4)cc23)CCCCC1 under activity, negative = inhibition: inconclusive: -32.5% [inhibitor]
Value for O=c1[nH]c(-c2ccccn2)nc2sc(-c3ccccc3)cc12 under Potency: inconclusive: 11.2 µM [inhibitor, partial curve, poor fit]

(list continues)

Structure (SMILES) | Potency | activity, negative = inhibition
N=c1ccn(Cc2ccc(Cl)c(Cl)c2)cc1 | – | inactive: -6.86%
Cc1ccc2nc(-c3ccncc3)c(NC3CCCC3)n2c1 | inconclusive: 6.31 µM [inhibitor, partial curve] | –
Cc1ccc(NC(CC(=O)c2ccccc2)C(=O)O)cc1Cl (configuration not stated) | inconclusive: 39.8 µM [inhibitor, single point] | –
CC(C)c1cnc2c(c1SCC(=O)c1ccccc1)c(=O)n(C)c(=O)n2C | inconclusive: 17.8 µM [inhibitor, partial curve] | –
COc1ccc2[nH]cc(CCNc3ncncc3-c3ccoc3)c2c1 | active: 22.4 µM | –
CCCCCc1nnc(NC(=O)c2cccc(S(=O)(=O)N3CCOCC3)c2)s1 | – | inactive: -35.2%
Cc1ccc(C(=O)Nc2sc3c(c2C(=O)O)CCCCC3)o1 | inconclusive: 15.8 µM [inhibitor, single point] | –
O=C(c1ccccc1)C(CN1CCCCC1)c1ccccc1 (configuration not stated) | inconclusive: 28.2 µM [inhibitor, partial curve, poor fit] | –
O=C(CNCc1ccccc1Cl)Nc1cc(S(=O)(=O)N2CCOCC2)ccc1Cl | inconclusive: 12.6 µM [inhibitor, partial curve] | –
COc1cccc(/C=N/Nc2ccc(C(=O)O)cc2)c1O | – | inactive: -103%
COc1cc2c(cc1OC)C(C)N(C(=O)C1COc3ccccc3O1)CC2 (configuration not stated) | inconclusive: 25.1 µM [inhibitor, partial curve, poor fit] | –
COc1cccc(-c2cc(C(=O)Nc3cccc(O)c3)no2)c1 | inconclusive: 22.4 µM [inhibitor, single point] | –
COc1ccccc1N1CCN(c2ccc(-c3ccccc3)nn2)CC1 | inconclusive: 15.8 µM [inhibitor, single point] | –
O=C(c1ccc2c(c1)OCO2)N1CCC2(CC1)Oc1ccc(F)cc1C(=O)C21CC(c2ccccc2)=NO1 (configuration not stated) | inconclusive: 1.41 µM [inhibitor, full curve] | –
C#CC(CC)(CC)NC(=S)Nc1cccc(C(C)=O)c1 | inconclusive: 20 µM [inhibitor, single point] | –
CCn1c(SCC(=O)c2[nH]c(C)c(C(C)=O)c2C)nnc1-c1ccccc1 | inconclusive: 25.1 µM [inhibitor, partial curve, poor fit] | –
COc1ccc(NC(=O)C23CC4CC(C2)CC(c2ccc(C)cc2)(C4)C3)cc1 | inconclusive: 10 µM [inhibitor, partial curve, poor fit] | –
COc1ccc(Oc2ccc(/C=C/C(=O)c3cccc(OC)c3)cc2[N+](=O)[O-])cc1 | inconclusive: 31.6 µM [inhibitor, partial curve, poor fit] | –
CCCc1nnc(NC(=O)c2nc(S(=O)(=O)Cc3cccc(C)c3)ncc2Cl)s1 | inconclusive: 28.2 µM [inhibitor, partial curve, poor fit] | –
COCc1nc2ccccc2n1Cc1c(F)cccc1Cl | inconclusive: 35.5 µM [inhibitor, partial curve, poor fit] | –
CSC1=C(C#N)C(c2cccc(Br)c2)CC(=O)N1 (configuration not stated) | inconclusive: 28.2 µM [inhibitor, partial curve, poor fit] | –

Record cards, from the list above. Order of values: Potency	activity, negative = inhibition
COc1cccc(/C=N/Nc2ccc(C(=O)O)cc2)c1O as listed: –	inactive: -103%
Cc1ccc(-c2cc3nc4c(c(=O)n3[nH]2)CCCC4)cc1 as listed: inconclusive: 12.6 µM [inhibitor, single point]	–

Remaining list, next part

Structure (SMILES) | Potency | activity, negative = inhibition
O=S(Cc1ccc(Br)cc1)Cc1nnc(SCc2c(F)cccc2Cl)n1-c1ccccc1 (configuration not stated) | inconclusive: 35.5 µM [inhibitor, partial curve, poor fit] | –
COc1cccc(-c2nc(NCC3CCCO3)c3ccccc3n2)c1O (configuration not stated) | inconclusive: 17.8 µM [inhibitor, partial curve, poor fit] | –
C=CCNC(=O)c1cc(-c2ccc3c(c2)OCO3)on1 | inconclusive: 17.8 µM [inhibitor, single point] | –
COc1ccc(-c2nc(CSCC(=O)N3CCN(c4cccc(C)c4C)CC3)c(C)o2)cc1OC | inconclusive: 25.1 µM [inhibitor, partial curve, poor fit] | –
Cc1ccc(C(=O)NC2CCCCCCC2)c(Cl)c1 | inconclusive: 14.1 µM [inhibitor, single point] | –
COc1ccc(C(=O)Nc2ccc(-c3ccc(C)o3)cc2)cc1S(=O)(=O)N1CCOCC1 | inconclusive: 10 µM [inhibitor, partial curve, poor fit] | –
CCOC(=O)c1c(C)oc2ncnc(N3CCN(c4ccccc4F)CC3)c12 | inconclusive: 31.6 µM [inhibitor, partial curve, poor fit] | –
CC1=C(C(=O)N2CCCC(C(=O)c3cccc(C(F)(F)F)c3)C2)OCCO1 (configuration not stated) | inconclusive: 17.8 µM [inhibitor, partial curve, poor fit] | –
CCOC(=O)CNC(=O)CSc1nnc(NC(=O)c2ccc(C)cc2)s1 | active: 12.6 µM | –
Fc1ccccc1-c1ccc(/C=N/Nc2nc3ccccc3[nH]2)o1 | inconclusive: 39.8 µM [inhibitor, single point] | –
CC1C(C)N(C(=O)CCl)c2ccccc2N1C(=O)CCl (configuration not stated) | inconclusive: 3.55 µM [inhibitor, full curve, poor fit] | –
O=c1[nH]c(=S)[nH]c(O)c1N=Nc1ccc(SC(F)F)cc1 | inconclusive: 17.8 µM [inhibitor, partial curve] | –
COc1ccc(OC)c(-c2nnc3n2N=C(c2ccc(OC)c(OCC4CC4)c2)CS3)c1 | inconclusive: 31.6 µM [inhibitor, single point] | –
COC(=O)c1ccc(CSc2ncnc3ccccc23)o1 | – | inactive: -30.7%
COc1ncccc1C(=O)NC1CCCc2c1cnn2-c1ccc(C)c(C)c1 (configuration not stated) | inconclusive: 15.8 µM [inhibitor, single point] | –
CC(C)C(=O)N1CCC(CN=Cc2c(O)n(C3CCCCC3)c(=O)n(C3CCCCC3)c2=O)CC1 | active: 25.1 µM | –
CCOC(=O)c1c(NC(=O)COC(=O)c2cccnc2OCC)sc(C(=O)N(CC)CC)c1C | inconclusive: 15.8 µM [inhibitor, partial curve, poor fit] | –
COc1cccc(-n2c(/C=C\c3ccc(Cl)cc3)nc3ccccc3c2=O)c1 | – | inactive: -32.4%
CC(OC(=O)CCc1nc2ccccc2c(=O)[nH]1)C(=O)NC1CCCC1 (configuration not stated) | – | inconclusive: -34.1% [inhibitor]
CC(C)=CCc1c(O)cc2oc3c(CC=C(C)C)c(O)c(O)c(CC=C(C)C)c3c(=O)c2c1O | inconclusive: 22.4 µM [inhibitor, partial curve, poor fit] | –
